In patent US20250388543A1, “HETEROARYL COMPOUNDS FOR THE TREATMENT OF PAIN” (VERTEX PHARMACEUTICALS INCORPORATED, priority 2022, published 2025):
Some results were stated once for a whole list of compounds, not compound by compound.

Amino acid sequences for entries named in this document (tags omitted). Residues count along the entry.
UniProt Q9Y5Y9, 126-1722 limits assumed: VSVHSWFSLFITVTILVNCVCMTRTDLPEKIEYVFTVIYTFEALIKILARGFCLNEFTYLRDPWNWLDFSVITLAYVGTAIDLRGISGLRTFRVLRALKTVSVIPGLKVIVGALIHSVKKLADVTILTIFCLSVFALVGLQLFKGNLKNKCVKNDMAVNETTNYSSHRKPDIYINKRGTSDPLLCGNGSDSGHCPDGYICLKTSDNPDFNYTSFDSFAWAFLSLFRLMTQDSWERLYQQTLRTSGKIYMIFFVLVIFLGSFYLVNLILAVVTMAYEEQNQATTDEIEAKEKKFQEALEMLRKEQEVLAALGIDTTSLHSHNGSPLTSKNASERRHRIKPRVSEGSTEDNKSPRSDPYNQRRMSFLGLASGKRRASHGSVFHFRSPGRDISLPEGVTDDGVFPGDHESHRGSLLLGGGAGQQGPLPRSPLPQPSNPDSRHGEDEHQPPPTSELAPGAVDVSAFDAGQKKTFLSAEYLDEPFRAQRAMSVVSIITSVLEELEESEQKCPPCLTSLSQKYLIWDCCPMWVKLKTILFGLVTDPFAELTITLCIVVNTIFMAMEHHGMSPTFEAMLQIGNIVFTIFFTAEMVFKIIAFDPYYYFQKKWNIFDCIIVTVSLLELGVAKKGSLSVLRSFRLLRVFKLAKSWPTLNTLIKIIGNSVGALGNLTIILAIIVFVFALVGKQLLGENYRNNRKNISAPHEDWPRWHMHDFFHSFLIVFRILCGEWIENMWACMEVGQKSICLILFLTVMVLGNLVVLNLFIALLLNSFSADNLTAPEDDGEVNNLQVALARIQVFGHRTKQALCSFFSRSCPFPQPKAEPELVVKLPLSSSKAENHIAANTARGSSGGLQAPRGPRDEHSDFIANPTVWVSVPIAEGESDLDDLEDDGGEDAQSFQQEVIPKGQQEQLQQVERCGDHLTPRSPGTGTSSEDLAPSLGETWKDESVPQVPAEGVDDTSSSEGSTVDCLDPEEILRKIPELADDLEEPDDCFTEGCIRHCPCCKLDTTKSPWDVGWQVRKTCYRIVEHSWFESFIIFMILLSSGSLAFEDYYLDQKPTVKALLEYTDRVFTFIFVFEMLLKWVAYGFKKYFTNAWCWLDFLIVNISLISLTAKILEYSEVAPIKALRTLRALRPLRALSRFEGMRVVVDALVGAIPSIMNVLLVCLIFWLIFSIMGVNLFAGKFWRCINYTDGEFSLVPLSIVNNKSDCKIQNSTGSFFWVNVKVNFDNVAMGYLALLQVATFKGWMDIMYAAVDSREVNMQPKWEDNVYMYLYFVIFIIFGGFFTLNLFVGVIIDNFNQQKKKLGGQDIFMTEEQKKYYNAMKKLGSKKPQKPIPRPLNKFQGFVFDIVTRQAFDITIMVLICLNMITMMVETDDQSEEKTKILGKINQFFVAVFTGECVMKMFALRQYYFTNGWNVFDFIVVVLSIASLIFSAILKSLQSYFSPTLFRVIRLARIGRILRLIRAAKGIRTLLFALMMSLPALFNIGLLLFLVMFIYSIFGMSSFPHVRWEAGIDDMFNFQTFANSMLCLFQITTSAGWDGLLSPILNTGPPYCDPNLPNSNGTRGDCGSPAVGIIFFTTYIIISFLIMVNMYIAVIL

These molecules were tested against human NaV 1.8 (Homo sapiens, UniProt Q9Y5Y9) (assay: E-VIPR Assay Detecting and Measuring NaV Inhibition Properties). Conditions: HEK cells expressing a truncated form of human NaV 1.8 with full channel activity; electrical stimulation, membrane-potential FRET dyes; 30 minutes compound incubation; read-out: measured IC50 value in the E-VIPR Assay.
Assay type: cell-based

IC50, < 500 nM:
Cc1[nH]c(-c2cnc(C3CC(F)(F)C3)cc2[C@H]2CC[C@@H](C(F)(F)F)CC2)cc(=O)c1-c1cnco1 [Compound 190]
Cc1[nH]c(-c2cnc(C3CC(F)(F)C3)cc2C2CCC(C(F)(F)F)CC2)cc(=O)c1-c1cc[nH]c(=O)c1 (centres unmarked) [Compound 191, 6-[6-(3,3-difluorocyclobutyl)-4-[4-(trifluoromethyl)cyclohexyl]-3-pyridyl]-2-methyl-3-(2-oxo-1H-pyridin-4-yl)-1H-pyridin-4-one]
Cc1[nH]c(-c2c(Oc3ccc(F)c(F)c3C)ncc(C(F)(F)F)c2C)cc(=O)c1-c1cccc(C(N)=O)n1 [Compound 192, 6-[6-[2-(3,4-difluoro-2-methyl-phenoxy)-4-methyl-5-(trifluoromethyl)-3-pyridyl]-2-methyl-4-oxo-1H-pyridin-3-yl]pyridine-2-carboxamide]
Cc1[nH]c(-c2cnc(C3CC(F)(F)C3)cc2C2CCC(C(F)(F)F)CC2)cc(=O)c1-c1ccc(=O)[nH]c1 (centres unmarked) [Compound 193, 6-[6-(3,3-difluorocyclobutyl)-4-[4-(trifluoromethyl)cyclohexyl]-3-pyridyl]-2-methyl-3-(6-oxo-1H-pyridin-3-yl)-1H-pyridin-4-one]
Cc1[nH]c(-c2cnc(C3CC(F)(F)C3)cc2C2CCC(C(F)(F)F)CC2)cc(=O)c1-c1cccc(=O)[nH]1 (centres unmarked) [Compound 194, 6-[6-(3,3-difluorocyclobutyl)-4-[4-(trifluoromethyl)cyclohexyl]-3-pyridyl]-2-methyl-3-(6-oxo-1H-pyridin-2-yl)-1H-pyridin-4-one]
COc1c(Oc2cc(C(F)(F)F)c(F)cc2-c2cc(=O)c(-c3cc[nH]n3)c(C)[nH]2)ccc(F)c1F [Compound 195, 6-[2-(3,4-difluoro-2-methoxy-phenoxy)-5-fluoro-4-(trifluoromethyl)phenyl]-2-methyl-3-(1H-pyrazol-3-yl)-1H-pyridin-4-one]
COc1c(Oc2cc(C(F)(F)F)c(F)cc2-c2cc(=O)c(-c3nnco3)c(C)[nH]2)ccc(F)c1F [Compound 196, 6-[2-(3,4-difluoro-2-methoxy-phenoxy)-5-fluoro-4-(trifluoromethyl)phenyl]-2-methyl-3-(1,3,4-oxadiazol-2-yl)-1H-pyridin-4-one]
COc1c(Oc2cc(C(F)(F)F)c(F)cc2-c2[nH]c(C)cc(=O)c2-c2ccn(C)n2)ccc(F)c1F [Compound 197, 2-[2-(3,4-difluoro-2-methoxy-phenoxy)-5-fluoro-4-(trifluoromethyl)phenyl]-6-methyl-3-(1-methylpyrazol-3-yl)-1H-pyridin-4-one]
COc1c(Oc2cc(C(F)(F)F)c(F)cc2-c2[nH]c(C)c(C)c(=O)c2C2CCOCC2)ccc(F)c1F [Compound 198, 2-[2-(3,4-difluoro-2-methoxy-phenoxy)-5-fluoro-4-(trifluoromethyl)phenyl]-5,6-dimethyl-3-tetrahydropyran-4-yl-1H-pyridin-4-one]
COc1c(Oc2cc(C(F)(F)F)c(F)cc2-c2[nH]c(C)c(C)c(=O)c2C2CCOC2)ccc(F)c1F (centres unmarked) [Compound 199, 2-[2-(3,4-difluoro-2-methoxy-phenoxy)-5-fluoro-4-(trifluoromethyl)phenyl]-5,6-dimethyl-3-tetrahydrofuran-3-yl-1H-pyridin-4-one]
COc1c(Oc2cc(C(F)(F)F)c(F)cc2-c2[nH]c(C)cc(=O)c2N2CCOCC2)ccc(F)c1F [Compound 200, 2-[2-(3,4-difluoro-2-methoxy-phenoxy)-5-fluoro-4-(trifluoromethyl)phenyl]-6-methyl-3-morpholino-1H-pyridin-4-one]
COc1c(Oc2cc(C(F)(F)F)c(F)cc2-c2[nH]c(C)cc(=O)c2-c2nnco2)ccc(F)c1F [Compound 201, 2-[2-(3,4-difluoro-2-methoxy-phenoxy)-5-fluoro-4-(trifluoromethyl)phenyl]-6-methyl-3-(1,3,4-oxadiazol-2-yl)-1H-pyridin-4-one]
CCOC(=O)c1c(-c2cc3ccccc3nc2Oc2ccc(F)c(F)c2C)[nH]c(C)c(C2CC2)c1=O [Compound 202, ethyl 5-cyclopropyl-2-[2-(3,4-difluoro-2-methyl-phenoxy)-3-quinolyl]-6-methyl-4-oxo-1H-pyridine-3-carboxylate]
CCOC(=O)c1c(-c2cc(C)c(C(F)(F)F)nc2N2CCCC(F)(F)CC2)[nH]c(C)c(C2CC2)c1=O [Compound 203, ethyl 5-cyclopropyl-2-[2-(4,4-difluoroazepan-1-yl)-5-methyl-6-(trifluoromethyl)-3-pyridyl]-6-methyl-4-oxo-1H-pyridine-3-carboxylate]
COc1c(Oc2cc(C(F)(F)F)c(F)cc2-c2[nH]c(C)c(C)c(=O)c2N2CCOCC2)ccc(F)c1F [Compound 204, 2-[2-(3,4-difluoro-2-methoxy-phenoxy)-5-fluoro-4-(trifluoromethyl)phenyl]-5,6-dimethyl-3-morpholino-1H-pyridin-4-one]
COc1c(Oc2cc(C(F)(F)F)c(F)cc2-c2cc(=O)c([S+](C)[O-])c(C)[nH]2)ccc(F)c1F (centres unmarked) [Compound 209, 6-[2-(3,4-difluoro-2-methoxy-phenoxy)-5-fluoro-4-(trifluoromethyl)phenyl]-2-methyl-3-methylsulfinyl-1H-pyridin-4-one]
CNS(=O)(=O)c1c(C)[nH]c(-c2cc(F)c(C(F)(F)F)cc2Oc2ccc(F)c(F)c2OC)cc1=O [Compound 210, 6-[2-(3,4-difluoro-2-methoxy-phenoxy)-5-fluoro-4-(trifluoromethyl)phenyl]-N,2-dimethyl-4-oxo-1,4-dihydropyridine-3-sulfonamide]
COc1c(Oc2cc(C(F)(F)F)c(F)cc2-c2cc(=O)c(S(N)(=O)=O)c(C)[nH]2)ccc(F)c1F [Compound 211, 6-[2-(3,4-difluoro-2-methoxy-phenoxy)-5-fluoro-4-(trifluoromethyl)phenyl]-2-methyl-4-oxo-1H-pyridine-3-sulfonamide]
CCOC(=O)c1c(-c2cc(F)c(C(F)(F)F)cc2Oc2ccc(F)c(F)c2OC)[nH]c(C)c(S(C)(=N)=O)c1=O (centres unmarked) [Compound 212, ethyl 2-[2-(3,4-difluoro-2-methoxy-phenoxy)-5-fluoro-4-(trifluoromethyl)phenyl]-6-methyl-5-(methylsulfonimidoyl)-4-oxo-1H-pyridine-3-carboxylate]
COc1c(Oc2cc(C(F)(F)F)c(F)cc2-c2[nH]c(C)cc(=O)c2S(C)(=N)=O)ccc(F)c1F (centres unmarked) [Compound 213, 2-[2-(3,4-difluoro-2-methoxy-phenoxy)-5-fluoro-4-(trifluoromethyl)phenyl]-6-methyl-3-(methylsulfonimidoyl)-1H-pyridin-4-one]
CCOC(=O)c1c(-c2cc3ccccc3nc2N2CCC[C@@H](C)C2)[nH]c(C)c(OC)c1=O [Compound 214, ethyl 5-methoxy-6-methyl-2-[2-[(3R)-3-methyl-1-piperidyl]-3-quinolyl]-4-oxo-1H-pyridine-3-carboxylate]
CCOC(=O)c1c(-c2cc3ccccc3nc2N2CCC3(CCCC3)CC2)[nH]c(C)c(OC)c1=O [Compound 215, ethyl 2-[2-(8-azaspiro[4.5]decan-8-yl)-3-quinolyl]-5-methoxy-6-methyl-4-oxo-1H-pyridine-3-carboxylate]
CCOC(=O)c1c(-c2cc3ccccc3nc2N2CCC3(CCC3)CC2)[nH]c(C)c(OC)c1=O [Compound 216, ethyl 2-[2-(7-azaspiro[3.5]nonan-7-yl)-3-quinolyl]-5-methoxy-6-methyl-4-oxo-1H-pyridine-3-carboxylate]
CCOC(=O)c1c(-c2cc3ccccc3nc2N2CC3CCC(C3)C2)[nH]c(C)c(OC)c1=O [Compound 217, ethyl 2-[2-(3-azabicyclo[3.2.1]octan-3-yl)-3-quinolyl]-5-methoxy-6-methyl-4-oxo-1H-pyridine-3-carboxylate]
CCOC(=O)c1c(-c2cc3ccccc3nc2N2CCC(C)(F)CC2)[nH]c(C)c(OC)c1=O [Compound 218, ethyl 2-[2-(4-fluoro-4-methyl-1-piperidyl)-3-quinolyl]-5-methoxy-6-methyl-4-oxo-1H-pyridine-3-carboxylate]
CCOC(=O)c1c(-c2cc3ccccc3nc2N2C[C@H](C)C[C@H](C)C2)[nH]c(C)c(OC)c1=O [Compound 219, ethyl 2-[2-[(3S,5R)-3,5-dimethyl-1-piperidyl]-3-quinolyl]-5-methoxy-6-methyl-4-oxo-1H-pyridine-3-carboxylate]
CCOC(=O)c1c(-c2cc3ccccc3nc2N2CCC(C(C)C)CC2)[nH]c(C)c(OC)c1=O [Compound 220, ethyl 2-[2-(4-isopropyl-1-piperidyl)-3-quinolyl]-5-methoxy-6-methyl-4-oxo-1H-pyridine-3-carboxylate]
CCOC(=O)c1c(-c2cc3ccccc3nc2N2CCC[C@H](C)C2)[nH]c(C)c(OC)c1=O [Compound 221, ethyl 5-methoxy-6-methyl-2-[2-[(3S)-3-methyl-1-piperidyl]-3-quinolyl]-4-oxo-1H-pyridine-3-carboxylate]
CCOC(=O)c1c(-c2cc3ccccc3nc2N2CCC(C)CC2)[nH]c(C)c(OC)c1=O [Compound 222, ethyl 5-methoxy-6-methyl-2-[2-(4-methyl-1-piperidyl)-3-quinolyl]-4-oxo-1H-pyridine-3-carboxylate]
CCOC(=O)c1c(-c2cc3ccccc3nc2Oc2ccc(F)c(F)c2OC)[nH]c(C)c(OC)c1=O [Compound 223, ethyl 2-[2-(3,4-difluoro-2-methoxy-phenoxy)-3-quinolyl]-5-methoxy-6-methyl-4-oxo-1H-pyridine-3-carboxylate]
CCOC(=O)c1c(-c2cc3ccccc3nc2Oc2ccc(F)cc2Cl)[nH]c(C)c(OC)c1=O [Compound 225, ethyl 2-[2-(2-chloro-4-fluoro-phenoxy)-3-quinolyl]-5-methoxy-6-methyl-4-oxo-1H-pyridine-3-carboxylate]
CCOC(=O)c1c(-c2cc3ccccc3nc2N2CCCC3(CCC3)C2)[nH]c(C)c(OC)c1=O [Compound 230, ethyl 2-[2-(6-azaspiro[3.5]nonan-6-yl)-3-quinolyl]-5-methoxy-6-methyl-4-oxo-1H-pyridine-3-carboxylate]
